Experimental data: paper PMC10665427

Target: T1, Lon^TRAP-Twin-Strep-tag (Lon S674A active-site mutant) (C. crescentus) (UniProt B8GX12)
T1 sequence: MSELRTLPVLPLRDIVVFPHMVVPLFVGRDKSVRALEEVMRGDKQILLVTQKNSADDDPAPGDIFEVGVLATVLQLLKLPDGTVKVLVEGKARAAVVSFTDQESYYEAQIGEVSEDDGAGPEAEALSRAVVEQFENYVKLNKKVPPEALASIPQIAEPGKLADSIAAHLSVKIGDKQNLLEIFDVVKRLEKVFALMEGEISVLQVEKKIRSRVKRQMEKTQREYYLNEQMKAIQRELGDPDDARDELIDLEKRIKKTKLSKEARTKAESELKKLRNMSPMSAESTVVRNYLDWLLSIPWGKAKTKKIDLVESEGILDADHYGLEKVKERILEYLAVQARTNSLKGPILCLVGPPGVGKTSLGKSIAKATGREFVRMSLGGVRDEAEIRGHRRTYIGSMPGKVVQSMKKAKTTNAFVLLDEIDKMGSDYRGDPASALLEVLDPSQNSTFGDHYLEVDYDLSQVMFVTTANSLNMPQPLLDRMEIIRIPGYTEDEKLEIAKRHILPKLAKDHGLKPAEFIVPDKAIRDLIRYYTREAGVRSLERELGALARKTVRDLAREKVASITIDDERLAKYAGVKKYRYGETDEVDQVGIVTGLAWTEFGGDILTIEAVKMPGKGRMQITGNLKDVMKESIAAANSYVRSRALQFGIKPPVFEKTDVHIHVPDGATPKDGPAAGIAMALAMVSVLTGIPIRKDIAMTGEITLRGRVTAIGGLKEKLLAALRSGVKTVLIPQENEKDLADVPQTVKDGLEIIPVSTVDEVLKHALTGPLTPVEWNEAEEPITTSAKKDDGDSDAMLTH
Experiment: affinity purification with mass spectrometry; Twin-Strep-tagged Lon^TRAP (bait) purified on Strep-TactinXT from lysates of Δlon C. crescentus after 2 h xylose; elution fractions TMT-labelled and analysed by LC-MS; compared with Lon^WT and a no-Lon control; two replicates

binding: binds
B1: DnaA (protein, UniProt P0CAU4 1-490)
chain: MTMKGGVASQDFSAAIATACEPAANVWSKVCVALKRELGDAAFGSWIAPAMLREAATGDVVLVTSTGIARDWIRRSAWRRIGELWAAHDATGRRIDLKSRLEFEAAAGAYVEATPKAVAAEPIEIVLPVSTDAPTVVAPSAKSPRTQGLQERFTFETFVPGPANEFAHAVARRIANWADGHFNPVLFHGPYGFGKTHLLNALAWEAMRNAPEKRVVYLTAERFLSTFVRAVMDRQTAAFKEELRAADLLIIDDVHFIAGKQSTQEELFHTLTALVGEGGRVVFSADRPPSAMTEMDAHLRSHLSAGLVCGLEPADRNLRLGILERKIQTLGAAHGFEPSIRPEVMQFLADRFTDSVRELEGALNTLSARAGEGLSRMTLDEVQAILRPHLRSGEKRITIDDIQKATAEHYGMKQADLLSERRNRAVARPRQAAMWLAKQLTTRSLPDIGRRFGGRDHTTVLHAVRRIEALRAEDSALSHDLETLTRKLRG

Results are given in words; binding and its absence hold for the method and conditions named. In cells and extracts the contact can be indirect. A yes stands for co-enrichment or nearness to the bait. Other partners may have been found. Where a sequence is shown, tags or fusion partners need not be part of it.
